Measured values as given in patent US20120065123A1, “Synthetic Antibodies” (priority 2009, published 2012).
Results are given in words; binding and its absence hold for the method and conditions named.

Sequences of proteins named here, by UniProt entry; tags and fusion partners are left off. Residues count along the entry.
UniProt P02787, residues 20-698: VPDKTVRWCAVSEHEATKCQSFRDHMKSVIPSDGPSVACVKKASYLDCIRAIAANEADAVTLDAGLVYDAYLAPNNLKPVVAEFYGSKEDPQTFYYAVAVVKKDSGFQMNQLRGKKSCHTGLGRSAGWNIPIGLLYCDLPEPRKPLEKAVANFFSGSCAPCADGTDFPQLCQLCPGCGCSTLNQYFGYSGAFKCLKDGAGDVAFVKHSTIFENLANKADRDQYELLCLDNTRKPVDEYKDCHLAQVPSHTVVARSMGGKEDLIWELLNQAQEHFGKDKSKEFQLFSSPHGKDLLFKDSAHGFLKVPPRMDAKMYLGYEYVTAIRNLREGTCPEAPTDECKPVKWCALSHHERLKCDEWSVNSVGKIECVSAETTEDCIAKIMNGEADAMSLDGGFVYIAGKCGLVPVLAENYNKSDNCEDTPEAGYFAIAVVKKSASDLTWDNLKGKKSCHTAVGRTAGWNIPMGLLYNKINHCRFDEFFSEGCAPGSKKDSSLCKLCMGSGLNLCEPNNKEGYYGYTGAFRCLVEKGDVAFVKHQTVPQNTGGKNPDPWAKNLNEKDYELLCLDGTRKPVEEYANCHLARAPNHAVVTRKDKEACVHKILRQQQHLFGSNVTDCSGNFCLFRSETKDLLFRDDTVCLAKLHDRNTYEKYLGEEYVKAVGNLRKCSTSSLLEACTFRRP

Target: pooled human transferrin (Sigma), biotinylated (human) (UniProt P02787)
Test: SPR Biacore A-100, purified peptide at several concentrations; purified (HPLC) peptide, re-screened at several concentrations

Q: For NQYVPIFSQPEDPVQQEGSC [TRF102], which binding is on record?
A: no binding
